Laboratory results taken from patent US20240376143A1, “SELECTION INHIBITION OF DNA POLYMERASE BETA BY A COVALENT INHIBITOR” (The Johns Hopkins University, priority 2021, published 2024).
Entries after “also recorded” stand apart in the source; their conditions may differ. For at least one compound, name, drawing or mass did not settle the structure.

Chains of the proteins cited; added tags and fusions are not shown. Lines headed by an entry give the natural chain unless they say otherwise; changes in a name come on top.
UniProt O75417: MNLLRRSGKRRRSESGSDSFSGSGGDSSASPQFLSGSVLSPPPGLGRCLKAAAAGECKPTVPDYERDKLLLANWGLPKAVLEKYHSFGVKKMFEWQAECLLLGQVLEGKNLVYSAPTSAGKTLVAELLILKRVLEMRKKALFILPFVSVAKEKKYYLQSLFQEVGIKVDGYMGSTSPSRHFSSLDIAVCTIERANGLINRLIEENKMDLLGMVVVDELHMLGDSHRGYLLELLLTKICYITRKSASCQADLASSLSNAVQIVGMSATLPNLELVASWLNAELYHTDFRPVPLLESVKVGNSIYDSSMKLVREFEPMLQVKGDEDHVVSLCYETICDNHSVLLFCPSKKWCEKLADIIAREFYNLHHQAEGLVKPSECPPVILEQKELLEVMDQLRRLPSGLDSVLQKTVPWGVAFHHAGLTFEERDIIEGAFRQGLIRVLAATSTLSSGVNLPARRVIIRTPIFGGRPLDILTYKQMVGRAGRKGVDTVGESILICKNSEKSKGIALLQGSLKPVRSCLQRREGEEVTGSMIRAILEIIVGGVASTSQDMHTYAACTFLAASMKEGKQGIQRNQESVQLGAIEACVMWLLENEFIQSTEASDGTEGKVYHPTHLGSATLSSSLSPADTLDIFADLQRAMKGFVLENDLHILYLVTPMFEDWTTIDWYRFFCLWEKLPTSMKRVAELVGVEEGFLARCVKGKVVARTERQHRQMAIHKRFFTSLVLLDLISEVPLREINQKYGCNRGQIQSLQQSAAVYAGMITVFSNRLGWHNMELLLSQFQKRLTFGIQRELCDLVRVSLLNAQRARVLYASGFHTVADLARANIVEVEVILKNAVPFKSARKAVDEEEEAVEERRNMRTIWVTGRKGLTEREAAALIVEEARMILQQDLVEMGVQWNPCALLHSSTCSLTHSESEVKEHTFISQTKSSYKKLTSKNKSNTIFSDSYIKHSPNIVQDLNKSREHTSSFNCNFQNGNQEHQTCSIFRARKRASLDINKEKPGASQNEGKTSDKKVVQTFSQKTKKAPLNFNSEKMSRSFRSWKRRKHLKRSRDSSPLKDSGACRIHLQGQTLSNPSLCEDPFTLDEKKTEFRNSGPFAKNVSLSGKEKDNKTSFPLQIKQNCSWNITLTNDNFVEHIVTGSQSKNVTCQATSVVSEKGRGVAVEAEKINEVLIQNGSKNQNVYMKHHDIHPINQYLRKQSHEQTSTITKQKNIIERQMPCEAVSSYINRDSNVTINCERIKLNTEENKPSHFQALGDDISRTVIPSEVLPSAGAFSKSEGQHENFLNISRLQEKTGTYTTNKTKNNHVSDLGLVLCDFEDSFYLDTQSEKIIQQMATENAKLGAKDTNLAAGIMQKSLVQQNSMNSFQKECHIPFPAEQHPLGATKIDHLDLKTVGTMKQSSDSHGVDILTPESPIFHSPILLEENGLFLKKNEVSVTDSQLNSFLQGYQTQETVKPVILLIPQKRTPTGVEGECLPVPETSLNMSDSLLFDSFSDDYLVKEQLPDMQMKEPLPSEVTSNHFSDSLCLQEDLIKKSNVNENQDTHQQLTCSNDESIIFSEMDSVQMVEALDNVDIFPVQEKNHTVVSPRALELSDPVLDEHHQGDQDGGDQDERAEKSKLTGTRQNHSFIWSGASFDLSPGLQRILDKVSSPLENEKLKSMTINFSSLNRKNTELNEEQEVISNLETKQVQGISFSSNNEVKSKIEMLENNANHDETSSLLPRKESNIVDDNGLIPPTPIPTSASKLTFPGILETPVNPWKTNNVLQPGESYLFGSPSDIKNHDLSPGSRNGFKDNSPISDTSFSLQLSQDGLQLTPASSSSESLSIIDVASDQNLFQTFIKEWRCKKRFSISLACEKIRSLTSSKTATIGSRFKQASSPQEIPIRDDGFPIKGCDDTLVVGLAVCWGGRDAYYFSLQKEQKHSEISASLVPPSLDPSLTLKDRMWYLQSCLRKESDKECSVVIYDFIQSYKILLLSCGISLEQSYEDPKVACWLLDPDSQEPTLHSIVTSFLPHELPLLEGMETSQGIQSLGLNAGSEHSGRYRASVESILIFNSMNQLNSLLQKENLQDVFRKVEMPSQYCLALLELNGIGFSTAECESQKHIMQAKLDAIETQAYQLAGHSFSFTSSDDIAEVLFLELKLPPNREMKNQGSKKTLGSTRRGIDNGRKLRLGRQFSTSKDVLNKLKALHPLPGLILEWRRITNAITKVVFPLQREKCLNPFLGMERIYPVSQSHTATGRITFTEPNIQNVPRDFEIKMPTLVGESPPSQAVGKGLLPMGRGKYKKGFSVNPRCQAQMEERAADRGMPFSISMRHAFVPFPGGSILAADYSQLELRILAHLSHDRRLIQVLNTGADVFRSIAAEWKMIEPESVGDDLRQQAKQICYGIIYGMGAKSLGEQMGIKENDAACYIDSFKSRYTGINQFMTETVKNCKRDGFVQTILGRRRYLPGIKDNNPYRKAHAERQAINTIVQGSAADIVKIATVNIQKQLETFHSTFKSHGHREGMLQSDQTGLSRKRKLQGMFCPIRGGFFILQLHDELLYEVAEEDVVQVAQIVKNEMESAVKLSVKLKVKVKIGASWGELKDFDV

What was measured:
[1] = target: T1, Pol λ (Homo sapiens, UniProt Q9UGP5); assay: primer extension assay (Pol λ); format: biochemical; details: 500 nM, 20 min preincubation
T1 sequence (Q9UGP5 1-575): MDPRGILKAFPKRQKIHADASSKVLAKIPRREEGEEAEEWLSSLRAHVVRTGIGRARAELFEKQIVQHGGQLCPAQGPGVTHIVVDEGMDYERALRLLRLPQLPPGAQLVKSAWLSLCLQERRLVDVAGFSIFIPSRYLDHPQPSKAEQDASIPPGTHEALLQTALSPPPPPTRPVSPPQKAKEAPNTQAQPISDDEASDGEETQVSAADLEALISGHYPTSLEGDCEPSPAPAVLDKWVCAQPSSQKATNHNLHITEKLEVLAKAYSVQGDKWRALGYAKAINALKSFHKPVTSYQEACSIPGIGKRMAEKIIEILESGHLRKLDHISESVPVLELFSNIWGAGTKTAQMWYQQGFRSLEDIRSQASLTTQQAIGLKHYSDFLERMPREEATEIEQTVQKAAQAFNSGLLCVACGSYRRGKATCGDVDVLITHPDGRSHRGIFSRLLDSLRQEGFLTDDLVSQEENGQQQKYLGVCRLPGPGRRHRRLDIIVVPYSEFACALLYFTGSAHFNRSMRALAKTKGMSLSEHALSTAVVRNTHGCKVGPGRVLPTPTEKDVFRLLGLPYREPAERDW
Description: (§1) A 10× working solution of 14 (5 or 100 μM) was prepared in 1:1 MeCN/H2O. A 10× preincubation mixture was prepared by mixing a 50× working solution of polymerase (250 nM) with an aliquot of the inhibitor (5 or 100 μM, 10×) in 1× reaction buffer (50 mM Tris·HCl, 50 mM NaCl, 5 mM MgCl2, 5 mM DTT, 0.1 mg/mL BSA, 10% glycerol, pH 7.5) (see Table 19 for volumes). The concentration of the preincubation mixture was 50 nM polymerase (10×) and 0, 0.5 or 10 μM 14 (1×).
(§2) The samples containing 50 nM polymerase and 14 (0, 0.5, or 10 μM) were preincubated at 25° C. for 20 min. After preincubation, an aliquot (2 μL, pol η or 3 μL, pol λ) was diluted with 10× ternary complex (pol η: 2 μL, 500 nM D4 or pol λ: 3 μL, 100 nM TC5), 10× dNTPs (5 mM; 2 μL, pol η or 3 μL, pol λ), and 1× reaction buffer (14 μL., pol η or 21 μL, pol λ) (see Table 20 for volumes). While the samples were incubated at 37° C., aliquots (pol η: 0, 2, 5, 10, 15, 20 min, 3 μL or pol λ: 0, 5, 15, 20, 30 min, 5 μL) were removed and quenched by the addition of 95% formamide, 20 mM EDTA loading buffer (10 μL). Aliquots were heated at 95° C. for 5 min, spun down, and loaded onto a 20% denaturing PAGE and run for 4 h at 55 watts. The gel was exposed in a radiography cassette, which was scanned using a Phosphorimager.

[2] = target: Pol θ (Homo sapiens, UniProt O75417); assay: primer extension assay (Pol θ); format: biochemical
[3] = target: T2, Pol η (Homo sapiens, UniProt Q9Y253); assay: primer extension assay (Pol η); format: biochemical; details: 500 nM, 20 min preincubation
T2 construct: purchased EnzyMax
T2 sequence (Q9Y253 1-713): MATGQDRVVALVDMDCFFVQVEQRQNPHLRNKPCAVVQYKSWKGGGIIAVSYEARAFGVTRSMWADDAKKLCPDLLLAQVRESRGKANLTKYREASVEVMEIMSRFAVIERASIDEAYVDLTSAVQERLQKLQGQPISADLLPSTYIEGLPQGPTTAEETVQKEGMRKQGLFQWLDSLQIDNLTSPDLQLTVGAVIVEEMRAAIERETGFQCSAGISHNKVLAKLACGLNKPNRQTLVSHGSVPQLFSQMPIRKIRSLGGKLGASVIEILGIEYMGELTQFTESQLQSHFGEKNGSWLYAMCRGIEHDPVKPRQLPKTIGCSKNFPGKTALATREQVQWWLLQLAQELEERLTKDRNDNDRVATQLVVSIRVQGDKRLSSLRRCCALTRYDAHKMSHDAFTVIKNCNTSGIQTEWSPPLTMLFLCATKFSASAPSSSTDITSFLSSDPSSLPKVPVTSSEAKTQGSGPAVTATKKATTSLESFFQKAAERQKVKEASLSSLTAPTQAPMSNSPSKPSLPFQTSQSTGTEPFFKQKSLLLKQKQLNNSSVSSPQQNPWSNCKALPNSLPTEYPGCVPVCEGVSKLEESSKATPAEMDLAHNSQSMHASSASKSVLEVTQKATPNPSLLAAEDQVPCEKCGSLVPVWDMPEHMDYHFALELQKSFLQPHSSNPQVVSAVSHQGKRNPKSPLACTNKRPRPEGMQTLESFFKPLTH
Description: as §1, §2

[4] = target: T1, Pol λ; details: cited from earlier work
[5] = target: DNA polymerase β (Pol β) (Homo sapiens, UniProt P06746); details: cited from earlier work

SMILES	effect on Pol λ activity [1]	effect on Pol θ activity ([2]; 500 nM, 20 min preincubation)	effect on Pol θ activity ([2]; 10 μM)	effect on Pol η activity [3]	Pol λ versus Pol β inhibition [4]	activity against Pol β relative to 1 [5]
O=C(NC1CC(n2cc(CNC(=O)c3cc4cc(Br)ccc4c(Br)c3O)c(=O)[nH]c2=O)OC1COP(=O)(O)OCC1CC(O)OC1O)c1cc(-c2ccc(Cl)cc2)oc1C(F)(F)F (stereo not drawn) [Compound 14]	no effect	no effect	no effect	no effect		
COc1cc(Cl)c(C=NOC2CC(n3cc(CNC(=O)c4cc5cccc(O)c5cc4O)c(=O)[nH]c3=O)OC2COP(=O)(O)OCC2CC(O)OC2O)c(Cl)c1O (stereo not drawn) [Compound 2]					even more effective at inactivating Pol λ; also recorded: more potent inhibitor of Pol λ than Pol β	approximately 50 times
